From PubChem BioAssay AID1347076 (National Center for Advancing Translational Sciences (NCATS), 2019)
About 13,000 (3.2%) of roughly 400,000 compounds were called active. Inconclusive results, whose numbers are uncertain, are shown with a selection of clear calls. Calls follow the shape of the dose curve; as a rule, active = well fitted cell-killing curve with a large enough effect; inconclusive = small, poorly fitted or top-dose-only effect, or effect the other way; inactive = flat fitted curve, though single readings scatter. Where the call is inconclusive, the potency comes from a doubtful curve fit.

Assay: qHTS assay for MDR1-selective chemotherapeutics: Primary screen using the drug-selected MDR subline cells KB-V1; also: nearly all actives have a fitted effect of over 60% in size
Conditions: KB-V1 MDR cells viability, CellTiter-Glo, 72 h; series mostly up to 46.1 µM
Procedure, shortened: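 In this primary screen, KB-V1 cells overexpressing P-gp are incubated with library compounds (lowest to highest concentration) for 72 h at 37 degrees C before a luminescent ATP viability read.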
Potency is read from the fitted curve at half-maximal effect.

Question: For `CC(C)c1ccc(NC(=O)C(c2ccc3c(c2)OCO3)N2CCCCC2)cc1` (centres undefined), which Potency is on record?
Answer: inconclusive: 29.1 µM [cytotoxic, single point]

Question: Which Potency does the source give for `COc1ccc(OC)c(-c2csc(NC(=O)Cc3ccc(OC)c(OC)c3)n2)c1` here?
Answer: inconclusive: 20.6 µM [cytotoxic, partial curve]

Question: Which Potency does the source give for `CCN(CC)S(=O)(=O)c1cccc(-c2nnc(SCCOc3ccccc3C)o2)c1` here?
Answer: inconclusive: 23.1 µM [cytotoxic, partial curve]

Question: For `CCC(C)[C@H]1CNC(=S)N1CCc1cc(C(F)(F)F)cc(C(F)(F)F)c1` (some centres undefined), which Potency is on record?
Answer: inactive

Question: With `COc1ccc(Cn2nnnc2C(c2ccccc2)N2CCN(c3ccccc3)CC2)cc1` (centres undefined) as the compound, how does the Potency read?
Answer: inconclusive: 0.58 µM [cytotoxic, full curve]

Question: For `O=C(Nc1ccc(Cl)cc1)c1ccc(OCC2CCCO2)cc1` (centres undefined), which Potency is on record?
Answer: active: 13 µM

Question: For `COc1cccc(N2CCN(c3ncnc4c3[nH]c3ccc(F)cc34)CC2C)c1` (centres undefined), which Potency is on record?
Answer: inconclusive: 2.91 µM [cytotoxic, partial curve, poor fit]

Question: Which Potency does the source give for `Cc1cn([C@H]2C[C@H](O)[C@@H](CNCc3cc(Cl)ccc3OCc3ccc(Cl)cc3)O2)c(=O)[nH]c1=O` here?
Answer: inactive

Question: For `O=C(Nc1nc(-c2cc(Cl)sc2Cl)cs1)c1cccs1`, which Potency is on record?
Answer: inconclusive: 29.1 µM [cytotoxic, single point]

Question: With `CC1CC(=O)N(CC(=O)Nc2ccc(OC(F)(F)F)cc2)c2ccccc2S1` (centres undefined) as the compound, how does the Potency read?
Answer: inconclusive: 14.6 µM [cytotoxic, single point]

Question: Which Potency does the source give for `CC1CCCN(C(=O)CCNS(=O)(=O)c2ccc(Br)cc2)C1` (centres undefined) here?
Answer: inconclusive: 11.6 µM [cytotoxic, partial curve, poor fit]

Question: Which Potency does the source give for `CC(C)c1ccc(S(=O)(=O)N2CCN(C(C)C(=O)N3CCCC3)CC2)cc1` (centres undefined) here?
Answer: active: 25.9 µM

Question: Which Potency does the source give for `Cc1ccc(C(C(=O)NC(C)(C)C)N(Cc2cccs2)C(=O)c2ccc3c(c2)OCCO3)cc1` (centres undefined) here?
Answer: inconclusive: 7.31 µM [cytotoxic, partial curve]

Question: With `CCOC(=O)c1c(C)nn(Cc2cccc(Cl)c2)c1N` as the compound, how does the Potency read?
Answer: inconclusive: 23.1 µM [cytotoxic, partial curve, poor fit]

Question: For `CCOc1ccc(-n2nc3ccc(NC(=O)c4ccc(C)cc4C)cc3n2)cc1`, which Potency is on record?
Answer: inactive

Question: With `CCn1c(CNc2ccc(C)cc2C)nnc1SCC(=O)N1CCCc2ccccc21` as the compound, how does the Potency read?
Answer: inactive

Question: With `Fc1ccc(CSc2nnc(-c3cc4c(s3)-c3ccccc3CC4)o2)cc1` as the compound, how does the Potency read?
Answer: active: 20.6 µM

Question: Which Potency does the source give for `Cc1ccc(NC(=O)C2CCCN(c3ncnc4c3nc3n4CCCCC3)C2)cc1Cl` (centres undefined) here?
Answer: inconclusive: 23.1 µM [cytotoxic, single point]

Question: For `Cc1cc(C(=O)NN=C(Cc2ccccc2)Cc2ccccc2)c(C)o1`, which Potency is on record?
Answer: inconclusive: 29.1 µM [cytotoxic, single point]

Question: For `Cc1ccnc(NC(c2cccnc2)c2ccc3cccnc3c2O)c1` (centres undefined), which Potency is on record?
Answer: inconclusive: 29.1 µM [cytotoxic, single point]

Question: With `CCc1nnc(NC(=O)CSc2nc(-c3ccc(F)cc3)cc(-c3ccccc3)c2C#N)s1` as the compound, how does the Potency read?
Answer: inactive

Question: With `COc1cc(/C=N/OCC(=O)NC23CC4CC(CC(C4)C2)C3)ccc1OCc1ccccc1` as the compound, how does the Potency read?
Answer: inconclusive: 29.1 µM [cytotoxic, single point]

Question: Which Potency does the source give for `O=C(Nc1c(C(=O)N2CCN(c3ccccc3)CC2)oc2ccccc12)c1ccccc1F` here?
Answer: inconclusive: 0.651 µM [cytotoxic, full curve]

Question: For `COc1ccccc1C(=O)Nc1ccc(C(=O)/C=C/c2cccs2)cc1`, which Potency is on record?
Answer: active: 23.1 µM

Question: Which Potency does the source give for `CCCC1=Nc2cc(C(=O)NCCCOCC)ccc2Sc2ccccc21` here?
Answer: active: 1.03 µM

Question: Which Potency does the source give for `COc1cc(OC)c(NC(=O)Cn2cnc3c(nc4n3CCCCC4)c2=O)cc1Cl` here?
Answer: inactive

Question: Which Potency does the source give for `Cc1cc(C(=O)CSc2n[nH]c(N)n2)c(C)n1-c1ccc(F)cc1` here?
Answer: active: 16.4 µM

Question: With `O=C(c1nn(Cc2ccccc2)c(=O)c2ccccc12)N1CCN(C/C=C/c2ccccc2)CC1` as the compound, how does the Potency read?
Answer: inconclusive: 25.9 µM [cytotoxic, partial curve, poor fit]

Question: With `CCCN1CNC(=S)N(c2ccccc2OCC)C1` as the compound, how does the Potency read?
Answer: inactive

Question: Which Potency does the source give for `COc1ccccc1CNS(=O)(=O)c1ccc(-c2cc(C)no2)cc1` here?
Answer: inconclusive: 32.6 µM [cytotoxic, single point]

Question: For `Cc1nc2c(C)cccn2c(=O)c1NC(=O)c1ccco1`, which Potency is on record?
Answer: inactive

Question: For `Cc1ccc(C)c(S(=O)(=O)N2CCCC2CNC(=O)C(=O)NCc2ccccc2)c1` (centres undefined), which Potency is on record?
Answer: active: 8.2 µM

Question: With `CCOC(=O)c1ccccc1NC(=O)COc1cc(=O)n(CC)c2ccccc12` as the compound, how does the Potency read?
Answer: inconclusive: 29.1 µM [rising, single point]

Question: Which Potency does the source give for `CC(C)(C)C(=O)N1N=C(c2ccc(NS(C)(=O)=O)cc2)CC1c1cccs1` (centres undefined) here?
Answer: inconclusive: 18.4 µM [cytotoxic, single point]

Question: For `Cn1c(=O)[nH]c(=O)c2c1nc(Br)n2CCSc1ncccn1`, which Potency is on record?
Answer: inconclusive: 14.6 µM [rising, partial curve, poor fit]

Question: With `COc1ccccc1NS(=O)(=O)c1ccc(Cl)c(NC(=O)c2sc3cc(Cl)ccc3c2Cl)c1` as the compound, how does the Potency read?
Answer: inactive

Question: With `COc1ccc2cnn(CCOc3ccccc3)c(=O)c2c1OC` as the compound, how does the Potency read?
Answer: inconclusive: 16.4 µM [cytotoxic, partial curve]

Question: With `Cc1ccc(-n2cnc3c(=O)[nH]cnc32)cc1` as the compound, how does the Potency read?
Answer: active: 9.2 µM

Question: For `CC(NC(=O)c1cc2c(=O)n(C)c3ccccc3c2n1C)c1ccc2c(c1)OCCO2` (centres undefined), which Potency is on record?
Answer: inconclusive: 16.4 µM [cytotoxic, partial curve]

Question: With `CCN(CC)S(=O)(=O)c1cccc(-c2nnc(C(=O)c3ccc(C(F)(F)F)cc3)o2)c1` as the compound, how does the Potency read?
Answer: inconclusive: 18.4 µM [cytotoxic, single point]

Question: With `COc1ccc(-c2nn(-c3ccccc3)cc2C(=O)NC(=S)Nc2cc(Cl)ccc2Cl)cc1` as the compound, how does the Potency read?
Answer: inactive

Question: With `NS(=O)(=O)c1ccc(CCNC(=O)C2CCCN2S(=O)(=O)c2cccc3nsnc23)cc1` (centres undefined) as the compound, how does the Potency read?
Answer: inconclusive: 20.6 µM [rising, single point]

Question: With `O=C(COc1ccc2ccccc2c1Br)N1CCN(c2ccccn2)CC1` as the compound, how does the Potency read?
Answer: active: 23.1 µM

Question: For `O=C(CC12CC3CC(C1)CC(CC(=O)NC1=NCCS1)(C3)C2)NC1=NCCS1`, which Potency is on record?
Answer: inconclusive: 7.31 µM [rising, partial curve]
